In EP4635954A1, “INDUCER FOR INDUCING MESENCHYMAL-EPITHELIAL TRANSITION AND REPROGRAMMING” (Iregene Therapeutics Co., Ltd, priority 2022, dated 2024):

System: miR-145
Test: Isothermal titration calorimetry (ITC), Nano-ITC
Assay type: binding
Details: Multiple Sites model
Description: Isothermal titration calorimetry (ITC) operates based on the principle of power compensation and allows accurate determination of the enthalpy change associated with molecular interactions across a broad concentration range using a single titration experiment. It measures the heat change upon binding and provides a complete thermodynamic profile of nucleic acid-ligand interactions. Quantitative thermodynamic characterization of the complex is essential for understanding the molecular basis of the interaction between the microRNA miR-145 and the small molecule compound. In this invention, the Nano-ITC calorimeter from Waters Corporation was used to validate in vitro the interaction between nucleic acid and small molecule compounds. The experimental procedure involved placing 300 µL of singlestranded miR-145 solution at a concentration of 50 µM into a temperature-controlled sample cell, which was thermally coupled via a thermocouple circuit to a reference cell containing an equal volume of deionized water. As an example, the small molecule A-3-6 was prepared at a concentration of 500 µM and a volume of 50 µL, and loaded into the injection syringe as the ligand. The heat change in the sample cell was measured and balanced against the reference cell, appearing as either endothermic or exothermic peaks. […]

O=C(Cc1ccccc1)Nc1cc2cc[nH]c2cn1 [Compound A-3-6, 2-Phenyl-N-(1H-pyrrolo[2,3-c]pyridin-5-yl)acetamide]
number of binding sites (nSite) (first site (Kd 7.017×10^-8 M)): 3
number of binding sites (nSite) (second site (Kd 7.544×10^-9 M)): 1.8
